Measurements published in patent US8617614B2, “Sustained release preparation for tissue regeneration therapy” (Ono Pharmaceutical Co., Ltd., priority 2006, dated 2013).
At least one compound was matched to its structure with a doubt left.

Test system: hippocampal CA1 region nerve cells
Assay: Number of nerve cells in hippocampal CA1 region, rat 4-VO model (Nissl staining)
Type: in vivo
[1] = rat 4-VO Test 1, Test Group 7: 3 mg/kg (as PGE1) s.c. twice daily 42 days
[2] = rat 4-VO Test 1, Test Group 5: 0.1 mg/kg s.c. twice daily 42 days

## CCCCC[C@H](O)/C=C/[C@H]1[C@H](O)CC(=O)[C@@H]1CCCCCCC(=O)O [PGE1•αCD, prostaglandin E1]
Rat 4-VO Test 1, Test Group 6: 1.5 mg/kg (as PGE1) s.c. twice daily 42 days
  Number of nerve cells per unit length (count/mm) Right (R): 114.7 ± 22.0 count/mm
[1]
  Number of nerve cells per unit length (count/mm) Left (L): 146.2 ± 39.6 count/mm
  Number of nerve cells per unit length (count/mm) Right (R): 127.6 ± 38.8 count/mm

## CCCC[C@H](C)C[C@H](O)/C=C/[C@H]1[C@H](O)CC(=O)[C@@H]1CC(=O)CCCCC(=O)OC [ornoprostil]
[2]
  Number of nerve cells per unit length (count/mm) Left (L): 134.6 ± 32.7 count/mm
  Number of nerve cells per unit length (count/mm) Right (R): 141.1 ± 17.8 count/mm
